Measured values taken from publication PMC4737751.
These are yes or no findings as the source states them, for the method shown. In cells and extracts the contact can be indirect. Here binding means that the protein was enriched with, or labelled near, the bait; the list need not be complete. Sequences can lack the tags named with a protein.

Protein sequences, listed by entry. Tags and fused reporters are not part of them.
UniProt P87112: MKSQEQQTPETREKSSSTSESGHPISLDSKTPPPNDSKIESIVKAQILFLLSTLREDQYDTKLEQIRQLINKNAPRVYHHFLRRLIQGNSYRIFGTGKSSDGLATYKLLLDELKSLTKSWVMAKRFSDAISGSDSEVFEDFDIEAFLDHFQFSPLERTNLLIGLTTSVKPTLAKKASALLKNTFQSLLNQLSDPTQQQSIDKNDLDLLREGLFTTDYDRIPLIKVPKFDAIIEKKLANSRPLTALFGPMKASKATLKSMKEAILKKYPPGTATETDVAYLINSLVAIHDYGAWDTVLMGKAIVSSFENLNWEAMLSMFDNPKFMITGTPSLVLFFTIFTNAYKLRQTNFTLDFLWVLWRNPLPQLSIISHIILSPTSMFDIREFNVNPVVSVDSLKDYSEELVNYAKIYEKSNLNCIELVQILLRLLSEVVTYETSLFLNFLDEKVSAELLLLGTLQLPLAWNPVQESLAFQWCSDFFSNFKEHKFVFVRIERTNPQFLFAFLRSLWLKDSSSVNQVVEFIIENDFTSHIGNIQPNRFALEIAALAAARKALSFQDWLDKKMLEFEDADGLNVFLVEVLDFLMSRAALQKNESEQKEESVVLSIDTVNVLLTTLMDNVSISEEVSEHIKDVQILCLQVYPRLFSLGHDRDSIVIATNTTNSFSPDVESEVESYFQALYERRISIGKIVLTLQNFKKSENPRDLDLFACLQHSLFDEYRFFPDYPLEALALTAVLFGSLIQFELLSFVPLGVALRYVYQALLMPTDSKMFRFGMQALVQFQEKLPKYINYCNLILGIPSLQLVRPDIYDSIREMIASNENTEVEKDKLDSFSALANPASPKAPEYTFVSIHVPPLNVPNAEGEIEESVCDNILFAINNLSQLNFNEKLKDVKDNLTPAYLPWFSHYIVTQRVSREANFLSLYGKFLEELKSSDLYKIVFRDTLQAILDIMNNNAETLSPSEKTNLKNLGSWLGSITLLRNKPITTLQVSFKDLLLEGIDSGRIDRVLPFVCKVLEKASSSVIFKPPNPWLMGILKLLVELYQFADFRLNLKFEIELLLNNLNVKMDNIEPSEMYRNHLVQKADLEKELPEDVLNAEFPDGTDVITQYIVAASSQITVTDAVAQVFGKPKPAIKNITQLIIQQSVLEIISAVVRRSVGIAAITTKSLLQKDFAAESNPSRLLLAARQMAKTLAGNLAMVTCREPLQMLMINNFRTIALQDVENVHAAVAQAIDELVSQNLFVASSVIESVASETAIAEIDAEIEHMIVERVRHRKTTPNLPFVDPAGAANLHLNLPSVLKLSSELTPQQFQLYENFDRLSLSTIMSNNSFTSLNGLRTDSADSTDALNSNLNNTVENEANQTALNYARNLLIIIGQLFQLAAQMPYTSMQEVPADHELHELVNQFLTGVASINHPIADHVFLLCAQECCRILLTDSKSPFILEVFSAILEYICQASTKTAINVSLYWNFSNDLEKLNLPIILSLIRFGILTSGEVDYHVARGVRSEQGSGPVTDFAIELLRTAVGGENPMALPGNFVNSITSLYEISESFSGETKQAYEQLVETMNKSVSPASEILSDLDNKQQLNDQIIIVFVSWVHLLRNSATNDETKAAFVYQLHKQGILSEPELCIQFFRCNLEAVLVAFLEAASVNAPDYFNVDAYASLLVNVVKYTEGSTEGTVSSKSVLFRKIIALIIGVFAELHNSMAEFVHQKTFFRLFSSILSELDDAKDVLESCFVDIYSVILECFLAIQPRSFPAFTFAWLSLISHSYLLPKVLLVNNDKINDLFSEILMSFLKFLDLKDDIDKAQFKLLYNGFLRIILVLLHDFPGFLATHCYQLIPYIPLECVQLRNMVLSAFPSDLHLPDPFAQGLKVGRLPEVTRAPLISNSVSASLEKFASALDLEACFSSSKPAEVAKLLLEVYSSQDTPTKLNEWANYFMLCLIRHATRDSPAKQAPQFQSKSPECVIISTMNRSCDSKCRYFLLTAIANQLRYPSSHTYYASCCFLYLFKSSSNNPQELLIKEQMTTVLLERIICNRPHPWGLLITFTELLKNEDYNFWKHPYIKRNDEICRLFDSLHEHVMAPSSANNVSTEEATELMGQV

Target: T1, Not2 subunit of the S. pombe CCR4-NOT complex, fused to Protein A with a TEV protease cleavage site (S. pombe) (UniProt P87240)
T1 sequence: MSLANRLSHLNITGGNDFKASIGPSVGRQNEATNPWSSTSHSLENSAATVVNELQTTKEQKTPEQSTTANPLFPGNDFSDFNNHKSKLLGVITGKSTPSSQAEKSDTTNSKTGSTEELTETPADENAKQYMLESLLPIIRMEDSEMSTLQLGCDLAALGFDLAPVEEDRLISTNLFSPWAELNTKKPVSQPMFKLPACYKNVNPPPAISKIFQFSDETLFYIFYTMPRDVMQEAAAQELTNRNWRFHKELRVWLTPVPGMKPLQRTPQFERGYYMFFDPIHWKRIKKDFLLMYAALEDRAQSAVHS
Assay: affinity purification with mass spectrometry; Protein A tag on Not2 captured on IgG Sepharose from S. pombe extract, washes with 500 mM NaCl, TEV elution, 10-30% glycerol gradient (10 mM HEPES pH 8.0, 500 mM NaCl); subunits identified by mass spectrometry; the same preparation gave the EM reconstructions

Molecule	binding
Not4, S. pombe CCR4-NOT subunit (E3 ubiquitin ligase)	binds
Not1 (negative on TATA 1), S. pombe CCR4-NOT subunit (from UniProt P87112 1-2100)	binds
Ccr4, S. pombe CCR4-NOT deadenylase subunit (protein, UniProt O74874 1-690) MFNPRYTQGTIYPGAHPGLLTPDHQHAAILSVQNSPALENSNISEHWKQQIALATQSRSFSSPHQRAHNAAALARSGGPGFSMNYNARTGAFTGGPNAAGLSSLGGKYNTSSTTTTLTTSTTLNTSSGTTLNSTSKTTTSSVAVDDQKSKSDSKKERRDWTCLDLGGIGLRNVSTDLFKFSFLTELYINHNNLTRLPPEIGKLKNLVILDASGNSIKTIPPELGLLTELREVLLFDNMISVIPAELGTLFQLKILGIEGNPLQDVYKNQIMESGTAGLIAALRDGCPVGPPPPERGWEKLVSDDDDDVNDNVSTSVRDLTAADSNKPSTTSKNLKFTIMSYNVLCERYATSTLYGYTPSWALSWSYRKDLIMQELGGYNADIICLQEVDVENYDTFFAPQMSLKGYKGVHFPKSRVRTMNEVERRIVDGCATFFKTSKYVMHEKMVIEYNQAPSLRRQDIKLTSNMYNRVMTKDNISVITLLENKENGSRLIVANCHIHWDPQFRDVKVIQVAMLMDEIAQVATKFRNMPSKIPSDQLKDERPTYPEYLKIPILICGDFNSVQGSGVYDFLSSGSISQNHEDFMNNDYGEYTVNGRSHAFNLKSAYGESEALSFTNYTPGFKGAIDHIWYTGNSLEVTGLLKGVDKDYLSGVVGFPNAHFPSDHICLLAEFKVKQEKTPLPSSKFNNDKK	binds
Mmi1, S. pombe YTH family nuclear RNA-binding protein (protein, UniProt O74958 1-488) MSNTNFSTSRSSKSIPELPNLEALRSLWPPPSLNESGDTRSVWTTHTGEPVASSVLSTSGSNNFSSPLKRPAPESHDAPIGRRLMVDDPRLIKHGKYDFSRHCTDYGHSYEWPYFRSLRRESMLYHTSGSYPESQPPYSSYSTDAPHYYHAGSESSAYYDSRSRLHGIQPPPKRRTLSPPPRRLADPVVVGSSRYVEEEVYRRPPYTLASEVPSSASAYQAGYSSYPVRSSPQLSHEDTRHGIASSGSTRYPFVPANTRASHSPSLLEPYAHSLPSSVAPVGAYPEKSSYLLSNSSNDSASRKEKPKARASTPPPLNFSRASEHRNEKGERISMINPRVVLDENGISHRSRYFIMLCDNETAIAHAKKTSIWAVKKDSSKRISDAYKKASVYFIFVAQQTYNALGYAQVVSDLNSTELPFWSDSSHAGGVRIKWIKTCNLFSAEISEIVSHMDHGSEARDGMEMMYDEGSRLCTLINYAIMKRIGRDR	binds

Other lines, results leading:

binding	Molecule
binds	Caf1, S. pombe CCR4-NOT deadenylase subunit (protein, UniProt O74856 1-335) MTAMNSNFSYPALGVDGISSQISPIRDVWSTNLQQEMNLIMSLIERYPVVSMDTEFPGVVARPLGVFKSSDDYHYQTLRANVDSLKIIQIGLALSDEEGNAPVEACTWQFNFTFNLQDDMYAPESIELLTKSGIDFKKHQEVGIEPADFAELLIGSGLVLQEEVTWITFHSGYDFAYLLKAMTQIPLPAEYEEFYKILCIYFPKNYDIKYIMKSVLNNSKGLQDIADDLQIHRIGPQHQAGSDALLTARIFFEIRSRYFDGSIDSRMLNQLYGLGSTGSVLWHNNSSTPQIQFRDLPGAHPSPTPSNAGIPTTLTNTSSAPNFANSTFRFPPRVV
binds	Caf40 (Ccr4-associated factor 40), S. pombe CCR4-NOT subunit (protein, UniProt Q92368 1-283) MENLESPNYEPALVYEWIIQLVSGTSREQALVELSRKREQYEDLALILWHSYGVMTALLQEIISVYPLLNPPTLTGPTSNRVCNALALLQCIASHPETRIHFLNAHITLFLYPFLNTLSKSKPFEYLRLTSLGVIGALVKNDSPEVINFLLSTEIIPLCLRIMENGSELSKTVAIFIVQKFLCDDVGLQYICQTYERFYAVASVLNNMVMQLVDSFAFRLLKHVIRCYLRLSDNPRAREALRHCLPEPLRDATFAQVLKDDHNTKKCLAQLLINLSDVAVVNQ
